Measurements from paper PMC2694275.
No constants are given. Whether binding was seen depends on the method and setting. For some assays here: In cells and extracts the contact can be indirect. Some binding calls cover weakened binding; strength is not graded here. For some assays here: Where a sequence is shown, tags or fusion partners need not be part of it.

Amino acid sequences for entries named in this document (tags omitted). A change or cut given only in a name is not applied to a line headed by its entry.
UniProt Q5S006: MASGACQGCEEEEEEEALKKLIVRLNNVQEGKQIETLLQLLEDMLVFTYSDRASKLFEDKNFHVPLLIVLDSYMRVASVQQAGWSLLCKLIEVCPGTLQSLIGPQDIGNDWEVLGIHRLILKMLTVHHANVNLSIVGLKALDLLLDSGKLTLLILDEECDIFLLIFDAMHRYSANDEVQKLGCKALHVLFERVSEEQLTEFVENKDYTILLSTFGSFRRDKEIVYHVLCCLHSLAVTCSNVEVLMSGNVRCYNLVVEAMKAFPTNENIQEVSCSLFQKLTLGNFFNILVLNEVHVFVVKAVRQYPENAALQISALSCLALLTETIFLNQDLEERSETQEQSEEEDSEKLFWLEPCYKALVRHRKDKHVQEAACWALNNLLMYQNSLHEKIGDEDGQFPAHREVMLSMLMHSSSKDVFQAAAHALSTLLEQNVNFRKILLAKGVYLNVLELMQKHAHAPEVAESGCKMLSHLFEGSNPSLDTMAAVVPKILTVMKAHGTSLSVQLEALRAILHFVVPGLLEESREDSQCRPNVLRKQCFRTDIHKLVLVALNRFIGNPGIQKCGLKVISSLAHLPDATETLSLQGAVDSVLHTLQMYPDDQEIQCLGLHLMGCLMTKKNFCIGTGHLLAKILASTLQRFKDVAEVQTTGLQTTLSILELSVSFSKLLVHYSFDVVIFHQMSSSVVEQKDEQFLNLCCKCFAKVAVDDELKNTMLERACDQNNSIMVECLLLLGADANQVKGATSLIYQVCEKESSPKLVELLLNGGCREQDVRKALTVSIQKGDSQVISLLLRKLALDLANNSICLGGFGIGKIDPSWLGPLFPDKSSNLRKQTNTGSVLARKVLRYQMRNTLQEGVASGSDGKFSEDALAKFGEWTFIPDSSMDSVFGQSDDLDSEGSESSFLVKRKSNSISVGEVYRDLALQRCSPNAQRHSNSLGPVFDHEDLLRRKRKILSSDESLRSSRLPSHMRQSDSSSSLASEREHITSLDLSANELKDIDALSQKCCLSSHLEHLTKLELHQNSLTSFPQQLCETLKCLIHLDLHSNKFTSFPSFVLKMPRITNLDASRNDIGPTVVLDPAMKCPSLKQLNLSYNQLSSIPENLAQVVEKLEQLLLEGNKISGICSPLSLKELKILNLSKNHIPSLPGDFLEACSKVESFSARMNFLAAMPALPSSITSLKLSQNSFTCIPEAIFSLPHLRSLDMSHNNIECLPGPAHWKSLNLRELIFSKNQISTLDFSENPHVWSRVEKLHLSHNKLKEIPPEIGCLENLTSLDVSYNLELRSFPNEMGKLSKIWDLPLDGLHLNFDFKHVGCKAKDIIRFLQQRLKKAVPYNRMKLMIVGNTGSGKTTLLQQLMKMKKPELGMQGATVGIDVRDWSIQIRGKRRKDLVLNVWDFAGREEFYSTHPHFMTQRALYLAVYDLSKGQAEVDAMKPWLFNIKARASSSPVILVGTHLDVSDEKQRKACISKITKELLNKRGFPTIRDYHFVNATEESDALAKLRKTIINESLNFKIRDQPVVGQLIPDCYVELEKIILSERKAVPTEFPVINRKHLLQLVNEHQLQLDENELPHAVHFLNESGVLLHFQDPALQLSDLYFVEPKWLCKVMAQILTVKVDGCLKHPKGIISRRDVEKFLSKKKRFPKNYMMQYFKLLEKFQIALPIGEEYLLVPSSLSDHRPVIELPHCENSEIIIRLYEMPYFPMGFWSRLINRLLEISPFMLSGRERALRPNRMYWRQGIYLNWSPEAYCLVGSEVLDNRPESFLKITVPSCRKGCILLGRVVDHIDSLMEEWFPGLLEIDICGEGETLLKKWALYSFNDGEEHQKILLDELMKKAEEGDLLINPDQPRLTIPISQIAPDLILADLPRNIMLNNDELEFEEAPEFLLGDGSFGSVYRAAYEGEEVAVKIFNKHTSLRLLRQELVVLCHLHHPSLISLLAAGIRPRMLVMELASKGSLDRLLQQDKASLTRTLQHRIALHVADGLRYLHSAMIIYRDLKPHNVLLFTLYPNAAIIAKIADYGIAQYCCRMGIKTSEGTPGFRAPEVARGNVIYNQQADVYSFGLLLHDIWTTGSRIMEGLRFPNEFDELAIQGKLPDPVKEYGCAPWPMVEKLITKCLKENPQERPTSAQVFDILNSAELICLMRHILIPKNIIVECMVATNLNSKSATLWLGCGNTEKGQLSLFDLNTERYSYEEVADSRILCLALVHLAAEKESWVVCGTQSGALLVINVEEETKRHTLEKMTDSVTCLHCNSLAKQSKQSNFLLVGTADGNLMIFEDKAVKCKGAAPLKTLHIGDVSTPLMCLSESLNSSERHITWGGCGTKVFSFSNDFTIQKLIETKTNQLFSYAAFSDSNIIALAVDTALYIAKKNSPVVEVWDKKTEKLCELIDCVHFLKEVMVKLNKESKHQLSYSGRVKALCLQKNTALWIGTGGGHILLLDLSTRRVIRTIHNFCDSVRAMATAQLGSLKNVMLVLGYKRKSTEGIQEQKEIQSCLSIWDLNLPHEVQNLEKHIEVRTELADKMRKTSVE
UniProt Q9UNE7: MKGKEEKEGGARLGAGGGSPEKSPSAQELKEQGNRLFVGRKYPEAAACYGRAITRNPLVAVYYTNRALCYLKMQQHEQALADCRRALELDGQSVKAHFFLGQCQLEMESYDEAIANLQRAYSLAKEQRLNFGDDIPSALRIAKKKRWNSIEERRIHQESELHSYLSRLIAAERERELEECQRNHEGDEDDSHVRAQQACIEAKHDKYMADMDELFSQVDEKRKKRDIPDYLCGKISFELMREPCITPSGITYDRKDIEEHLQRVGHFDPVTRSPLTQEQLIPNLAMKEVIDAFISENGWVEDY

Key:
[1] = target: myc-tagged full-length LRRK2 (mouse) (UniProt Q5S006); test: co-IP; data not shown; full length CHIP(K30A) with full length LRRK2
[2] = target: myc-tagged full-length LRRK2 (mouse) (UniProt Q5S006); test: co-IP; HEK293 transfected with only pMyc-LRRK2, 48 h; IP with polyclonal anti-myc or rabbit IgG, blot with anti-CHIP or anti-Hsp90 for the endogenous proteins (Figure 7B)
[3] = target: T1, HA-tagged CHIP_(150–200) (mouse) (UniProt Q9WUD1); test: co-IP; HEK293 co-transfected with myc- and HA-tagged constructs; lysis in 50 mM Tris pH 7.4, 150 mM NaCl, 1% NP-40; IP with polyclonal anti-myc or anti-HA, blot with monoclonal anti-HA or anti-myc; 5 µM lactacystin in Figures 1 and 2; 1 µM geldanamycin for 1 h in Figure 2H and Figure S3
T1 sequence: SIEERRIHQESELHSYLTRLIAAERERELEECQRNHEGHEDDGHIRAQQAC

[4] = target: myc-tagged full-length LRRK2 (mouse) (UniProt Q5S006); test: co-IP; HEK293 co-transfected with pMyc-LRRK2, pFlag-Hsp90 and pHA-CHIP, 5 µM lactacystin, 48 h; IP with polyclonal anti-myc or rabbit IgG, blot with anti-HA, anti-Flag and anti-myc (Figure 7A)
[5] = target: myc-tagged full-length LRRK2 (mouse) (UniProt Q5S006); test: co-IP; HEK293 co-transfected with myc- and HA-tagged constructs; lysis in 50 mM Tris pH 7.4, 150 mM NaCl, 1% NP-40; IP with polyclonal anti-myc or anti-HA, blot with monoclonal anti-HA or anti-myc; 5 µM lactacystin in Figures 1 and 2; 1 µM geldanamycin for 1 h in Figure 2H and Figure S3
[6] = target: myc-tagged full-length LRRK2(D1994A) (mouse) (UniProt Q5S006); test: as above
[7] = target: myc-tagged full-length LRRK2(G2019S) (mouse) (UniProt Q5S006); test: as above
[8] = target: myc-tagged full-length LRRK2(R1441C) (mouse) (UniProt Q5S006); test: as above
[9] = target: HA-tagged full-length CHIP (UniProt Q9UNE7); test: as above
[10] = target: LRRK2 ROC domain (amino acids 1331–1512) bait in pGBKT7 (mouse) (UniProt Q5S006); test: two-hybrid; Matchmaker GAL4 system; LRRK2 domain baits in pGBKT7 (AH109) mated with a mouse brain cDNA library (Y187); SD/-Leu-Trp-His plus 5 mM 3-AT; retested by co-transformation on SD/-Leu-Trp-His-Ade plus 2 mM 3-AT, X-α-Gal and X-β-Gal assays
[11] = target: myc-tagged LRRK2 ROC domain (amino acids 1331–1512) (mouse) (UniProt Q5S006); test: co-IP; HEK293 co-transfected with myc- and HA-tagged constructs; lysis in 50 mM Tris pH 7.4, 150 mM NaCl, 1% NP-40; IP with polyclonal anti-myc or anti-HA, blot with monoclonal anti-HA or anti-myc; 5 µM lactacystin in Figures 1 and 2; 1 µM geldanamycin for 1 h in Figure 2H and Figure S3

Question: “HA-tagged full length CHIP with the K30A point mutation (from UniProt Q9UNE7 1-303) (enzyme)” was tested. Which binding [1] did it give?
Answer: binds

Question: How did the binding [2] turn out when “endogenous CHIP of HEK293 cells (from UniProt Q9UNE7 1-303) (enzyme)” was run?
Answer: binds

Question: Which binding [3] does the source give for “myc-tagged LRRK2 ROC domain (amino acids 1331–1512) (from UniProt Q5S006 1331-1512) (domain or fragment)” here?
Answer: binds

Question: “HA-tagged full-length CHIP (from UniProt Q9UNE7 1-303) (enzyme)” was tested. Which binding [4] did it give?
Answer: binds

Question: What about the binding [5] of the same molecule?
Answer: binds

Question: What about the binding [6] of the same molecule?
Answer: binds

Question: What about the binding [7] of the same molecule?
Answer: binds

Question: What about the binding [8] of the same molecule?
Answer: binds

Question: How did the binding [9] turn out when “myc-tagged full-length LRRK2 (from UniProt Q5S006 1-2527)” was run?
Answer: binds

B1: CHIP charged domain, amino acid 150 to amino acid 200, prey clone from the mouse brain cDNA library (domain or fragment, UniProt Q9WUD1 150-200)
chain: SIEERRIHQESELHSYLTRLIAAERERELEECQRNHEGHEDDGHIRAQQAC
Question: Which binding [10] does the source give for B1 here?
Answer: binds

B2: HA-tagged CHIP_(150–200) (domain or fragment, UniProt Q9WUD1 150-200)
chain: SIEERRIHQESELHSYLTRLIAAERERELEECQRNHEGHEDDGHIRAQQAC
Question: With B2 as the molecule, how does the binding [11] read?
Answer: binds
